# Experimental data taken from PubChem BioAssay AID743255 (National Center for Advancing Translational Sciences (NCATS), 2014).
# Chains of the proteins cited; added tags and fusions are not shown. Lines headed by an entry give the natural chain unless they say otherwise; changes in a name come on top.
# UniProt O94782: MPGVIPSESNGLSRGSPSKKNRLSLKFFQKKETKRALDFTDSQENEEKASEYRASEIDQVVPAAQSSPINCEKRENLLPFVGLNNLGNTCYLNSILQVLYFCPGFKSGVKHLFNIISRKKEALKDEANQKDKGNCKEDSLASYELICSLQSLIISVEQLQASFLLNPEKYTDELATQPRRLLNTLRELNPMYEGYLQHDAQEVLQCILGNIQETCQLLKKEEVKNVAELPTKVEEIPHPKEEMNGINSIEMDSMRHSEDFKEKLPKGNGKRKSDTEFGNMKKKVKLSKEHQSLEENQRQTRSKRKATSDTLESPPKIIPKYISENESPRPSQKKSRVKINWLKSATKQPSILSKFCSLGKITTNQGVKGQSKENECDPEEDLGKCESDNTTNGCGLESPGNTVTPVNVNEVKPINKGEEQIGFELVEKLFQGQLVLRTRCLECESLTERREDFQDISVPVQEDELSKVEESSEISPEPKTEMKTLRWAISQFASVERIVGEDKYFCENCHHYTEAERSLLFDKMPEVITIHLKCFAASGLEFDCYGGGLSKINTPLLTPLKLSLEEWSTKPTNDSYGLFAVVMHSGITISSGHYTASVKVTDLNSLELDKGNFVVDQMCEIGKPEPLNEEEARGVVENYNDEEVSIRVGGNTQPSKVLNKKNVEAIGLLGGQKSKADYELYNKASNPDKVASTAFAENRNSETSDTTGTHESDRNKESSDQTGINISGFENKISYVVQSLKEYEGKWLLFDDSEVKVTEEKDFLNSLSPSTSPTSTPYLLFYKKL
# The campaign covered roughly 390,000 compounds. About 910 (0.23%) were called active. The inconclusive results got no clear call from the source; some entries with a clear call stand among them for comparison. The call rests on the fitted dose curve; in most records, active means well fitted inhibition curve with a large enough effect; inconclusive means small, poorly fitted or top-dose-only effect; inactive means no such curve, though single readings can be large or run the other way. A potency beside an inconclusive call is a rough fit, not a confirmed value.
# Target: Ubiquitin carboxyl-terminal hydrolase 1 (Homo sapiens) (UniProt O94782)
# Test: Inhibitors of USP1/UAF1: Primary Screen; further: nearly all actives have a fitted effect of over 60% in size
# Conditions: recombinant USP1/UAF1, Ub-Rhodamine cleavage fluorescence; activity change, negative = inhibition: at 57.1 µM (top of the series)
# How it was run: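 USP1/UAF1 complex at 1 nM was preincubated with compound for 15 min at room temperature, then Ub-Rho substrate (150nM final) was added. Fluorescence (480/540 nm) was read kinetically, 6 reads every 60 seconds.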
# On the % scale 0 is the no-effect control and ±100 the full control effect; potency means the concentration at half of the fitted maximal effect.
Structure (SMILES),Potency,"activity change, negative = inhibition"
CCC(C(=O)NC1CCCCC1)n1nc(C)c2sc3ccccc3c2c1=O (stereo not given),"inconclusive: 5.01 µM [inhibitor, partial curve]",
COc1ccc(CNC(=O)C(c2ccc(C)o2)N(C(=O)c2csnn2)c2ccc(C(C)C)cc2)cc1 (stereo not given),,inconclusive: -32.6% [inhibitor]
CCOCCn1c(=NC(=O)c2ccc3c(c2)OCCO3)sc2cc(OCC)ccc21,"inconclusive: 0.282 µM [inhibitor, full curve, poor fit]",
CCC12CCCN3CCc4c(n(c5ccccc45)C(O)(C(=O)OC)C1)C32 (stereo not given),"inconclusive: 39.8 µM [inhibitor, partial curve]",
CC(=O)N(C)c1ccc(NC(=O)Cc2cccs2)cc1,"inconclusive: 8.91 µM [inhibitor, partial curve]",
Cc1ccc(C(=O)c2cn(Cc3ccccc3)c3cc4c(cc3c2=O)OCCO4)cc1,"inconclusive: 200 µM [inhibitor, partial curve, poor fit]",
CS(=O)(=O)Nc1ccc(C(=O)Nc2ccc3c(c2)OCO3)cc1,,inactive: -6.23%
COc1ccc(C)cc1NC(=O)c1sc2ncnc(N3CCN(c4ccccn4)CC3)c2c1C,,inactive: -3.25%
COc1ccc(NCc2cccn2-c2nnc(N3CCC(C)CC3)s2)c(OC)c1,,inactive: 0.441%
Cc1cc(SCC(=O)c2cccs2)nc2ccccc12,"inconclusive: 39.8 µM [inhibitor, partial curve, poor fit]",
O=C(CCc1ccccc1)N1CCN(c2ccc(Cl)cc2)CC1,"inconclusive: 0.355 µM [inhibitor, full curve]",
O=C(COC(=O)C1=NN(c2ccccc2)C(=O)CC1)Nc1nc(-c2ccc(F)cc2)cs1,"inconclusive: 5.62 µM [inhibitor, full curve, poor fit]",
Nc1c(C(=O)O)sc2nc(-c3ccccc3)c3c(c12)CCCC3,,inactive: -15.1%
COc1ccc(N=CC=C2OC(C)(C)C(C)(C)O2)cc1OC,"inconclusive: 70.8 µM [inhibitor, partial curve, poor fit]",
C[C@H](CO)N1C[C@H](C)[C@H](CN(C)Cc2ccncc2)OCc2ccccc2-c2c(n(C)c3ccccc23)C1=O,"inconclusive: 39.8 µM [inhibitor, partial curve]",
CCC1CCCCN1CCCNC(=O)Cn1ncc2c(C)n(Cc3ccccc3Cl)c(C)c2c1=O (stereo not given),"inconclusive: 31.6 µM [inhibitor, single point]",
Cc1nn(C(C)C(=O)Nc2cccc(F)c2)c(=O)c2c1sc1ccccc12 (stereo not given),"inconclusive: 28.2 µM [inhibitor, partial curve]",
O=C(C1=C(O)/C(=C/c2ccc(O)cc2)CCC1)C(F)(F)F,"inconclusive: 50.1 µM [inhibitor, partial curve, poor fit]",
O=C1CC(N2CCN(S(=O)(=O)c3ccccc3F)CC2)C(=O)N1c1ccc(F)cc1F (stereo not given),,inactive: 4.37%
CCc1cc2c(=O)c(-c3ccc4c(c3)OCCO4)coc2cc1OS(C)(=O)=O,,inactive: -3.31%
O=c1c2ccccc2oc2cc(-c3ccc(CN4CCOCC4)cc3)ccc12,"inconclusive: 50.1 µM [inhibitor, partial curve, poor fit]",
COc1ccc(NC(=O)CN(C)C(=O)/C=C/c2ccc(OCc3ccccc3)cc2)cc1,,inactive: -4.98%

Structure (SMILES),Potency,"activity change, negative = inhibition"
CC[C@@]1(c2ccccc2OC)C(=O)N(C(=O)OC)N1C(=O)OC,"inconclusive: 56.2 µM [inhibitor, partial curve, poor fit]",
O=C(/C=C/c1cccs1)Nc1scc(-c2ccccc2)c1C(=O)O,"inconclusive: 35.5 µM [inhibitor, partial curve]",
CCc1c(N)nc(N)nc1Nc1ccccc1C,"inconclusive: 4.47 µM [inhibitor, full curve, poor fit]",
COc1ccccc1NC(=O)c1sc(NC(=O)c2ccco2)c(C#N)c1C,"inconclusive: 1 µM [inhibitor, full curve, poor fit]",
C/C(=N/NC(=O)c1cc(O)c(O)c(O)c1)c1ccc([N+](=O)[O-])cc1,,inactive: -12.5%
CCc1ccc2[nH]c(=O)c(C(c3nnnn3CC3CCCO3)N3CCCc4ccccc43)cc2c1 (stereo not given),,inactive: -16.6%
COc1ccc(OC)c(N2CC(O)(c3ccccc3)[N+]3=C2SCCC3)c1 (stereo not given),,inactive: -13.9%
CCC(C)NC(=O)c1c(N)n(/N=C/c2cccnc2)c2nc3ccccc3nc12 (stereo not given),,inactive: -15.9%
Cc1ccc(-n2nc3ccc(NC(=O)c4cccc([N+](=O)[O-])c4C)cc3n2)cc1,"inconclusive: 7.08 µM [inhibitor, partial curve, poor fit]",
Cc1ccc(CNc2nc3ccc(C)cc3n3cnnc23)cc1,"inconclusive: 50.1 µM [inhibitor, partial curve, poor fit]",
CCOC(=O)CC(=O)CSc1nc(-c2ccccc2)cc(-c2ccc(Cl)cc2)c1C#N,"inconclusive: 44.7 µM [inhibitor, partial curve, poor fit]",
COc1ccc(CCC(=O)NC2CCC(C)CC2)cc1 (stereo not given),"inconclusive: 31.6 µM [inhibitor, single point]",
COc1ccc(C2/C=C\CN(C(=O)Nc3ccc(C(F)(F)F)cc3)CC(=O)N2Cc2ccc(F)cc2)cc1 (stereo not given),"inconclusive: 28.2 µM [inhibitor, partial curve, poor fit]",
CC(C)COc1ccc(C(=O)Nc2onc3c2CCCC3)cc1,"inconclusive: 10 µM [inhibitor, partial curve, poor fit]",
Cc1ccc(NC(=O)Cn2nc(C(F)(F)F)c3c2CCC3)cc1C,"inconclusive: 10 µM [inhibitor, full curve, poor fit]",
CCOC(=O)c1ccc(NC(=S)N(CCCN2CCCCC2)Cc2ccco2)cc1,,inactive: -1.93%
CCN(CC)c1ccc(NC2=C(Cl)C(=O)c3ccccc3C2=O)cc1,"inconclusive: 31.6 µM [inhibitor, partial curve]",
Cc1ccccc1-c1noc(CSc2nc(-c3ccc(F)cc3)cc(=O)[nH]2)n1,"inconclusive: 0.199 µM [inhibitor, full curve, poor fit]",
O=C(NNc1c2ccccc2nc2ccccc12)c1ccc(Cl)cc1,,inactive: -22.9%
O=C(CNc1ccc(C(F)(F)F)cc1)Nc1cccc(S(=O)(=O)N2CCCCC2)c1,"inconclusive: 0.282 µM [inhibitor, full curve]",
O=C(/C=C/c1ccccc1)Nc1ccc(N2CCCCC2)cc1,,inactive: -19%
CC(=O)N/C(=C/c1ccc([N+](=O)[O-])cc1)C(=O)O,"inconclusive: 5.01 µM [inhibitor, partial curve]",

Structure (SMILES),Potency,"activity change, negative = inhibition"
O=[N+]([O-])c1ccc(N2CCN(Cc3ccccc3)CC2)nc1,"inconclusive: 35.5 µM [inhibitor, partial curve, poor fit]",
CC(=O)Nc1cccc(-c2nnc(SCC(=O)c3ccc([N+](=O)[O-])cc3)o2)c1,"inconclusive: 44.7 µM [inhibitor, partial curve, poor fit]",
COc1ccc(OC)c(CNC(=O)c2cnc(N(C)C)nc2)c1,"inconclusive: 8.91 µM [inhibitor, partial curve]",
Cc1ccc(/C=C2\Oc3c(ccc(O)c3CN3CCN(CCO)CC3)C2=O)cc1,"inconclusive: 25.1 µM [inhibitor, single point]",
O=S(=O)(c1ccc2nc(Nc3ccc(Br)cc3F)ccc2c1)N1CCCC1,"inconclusive: 0.794 µM [inhibitor, full curve, poor fit]",
CCCOC(=O)c1ccc(NC(=O)c2nc3nc(C)cc(C)n3n2)cc1,,inactive: -4.6%
COc1ccc(-n2nc(C(=O)N3CCN(c4cccc(C)c4)C(C)C3)c3c4ccccc4n(C)c3c2=O)cc1Cl (stereo not given),,inactive: -2.13%
CCC(C)(C)n1nnnc1C(c1ccc(C)cc1)N1CCCC1 (stereo not given),"inconclusive: 112 µM [inhibitor, partial curve, poor fit]",
Cc1cccc(NC(=S)NC(C)C(c2cccs2)N2CCN(C)CC2)c1C (stereo not given),"inconclusive: 44.7 µM [inhibitor, partial curve, poor fit]",
Cc1cn(CC(=O)NCCc2ccccn2)c(=O)[nH]c1=O,,inactive: -18.2%
CC(=O)Nc1ccc(S(=O)(=O)NC2=C(N3CCN(c4ccc(F)cc4)CC3)C(=O)c3ccccc3C2=O)cc1,"inconclusive: 31.6 µM [inhibitor, partial curve]",
O=[N+]([O-])c1cc([N+](=O)[O-])c2nonc2c1Nc1ccccc1O,"inconclusive: 8.91 µM [inhibitor, partial curve]",
CC(C)(CNc1ccc([N+](=O)[O-])cc1Cl)N1CCOCC1,"inconclusive: 44.7 µM [inhibitor, partial curve, poor fit]",
CNc1c2c(nn1C)CCCC2,"inconclusive: 0.447 µM [inhibitor, full curve]",
CCN1CCN(C(=O)C2CCN(S(=O)(=O)N3CCC4(CC3)OCCO4)CC2)CC1,"inconclusive: 63.1 µM [inhibitor, partial curve, poor fit]",
COc1ccc(Oc2c(C(F)(F)F)oc3c(CN4CCCC(C)C4)c(O)ccc3c2=O)cc1 (stereo not given),,inactive: 17.9%
O=C(Nc1ccc(N2CCOCC2)cc1)Nc1ccc2nc(-c3ccco3)c(-c3ccco3)nc2c1,,inactive: -12.9%
CC(C)=CCc1c2c(c3occ(-c4ccc(O)cc4)c(=O)c3c1O)C=CC(C)(C)O2,,inactive: 3.01%
O=C(Nc1ccccc1Br)c1ccc(N2CCCC2=O)cc1,"inconclusive: 0.631 µM [inhibitor, full curve, poor fit]",
O=C(N/N=C/C(Cl)=C/c1ccc([N+](=O)[O-])cc1)C(=O)Nc1ccc(C(=O)O)cc1,,inactive: -17.1%
O=C(CSc1nccn1-c1cccc(Cl)c1)Nc1ccc2c(c1)OCCO2,"inconclusive: 0.794 µM [inhibitor, full curve]",

# For reference, part of the list above:
Structure (SMILES),Potency,"activity change, negative = inhibition"
CCC(C)(C)n1nnnc1C(c1ccc(C)cc1)N1CCCC1 (stereo not given),"inconclusive: 112 µM [inhibitor, partial curve, poor fit]",
Cc1cccc(NC(=S)NC(C)C(c2cccs2)N2CCN(C)CC2)c1C (stereo not given),"inconclusive: 44.7 µM [inhibitor, partial curve, poor fit]",
Cc1cn(CC(=O)NCCc2ccccn2)c(=O)[nH]c1=O,,inactive: -18.2%
CC(=O)Nc1ccc(S(=O)(=O)NC2=C(N3CCN(c4ccc(F)cc4)CC3)C(=O)c3ccccc3C2=O)cc1,"inconclusive: 31.6 µM [inhibitor, partial curve]",
O=[N+]([O-])c1cc([N+](=O)[O-])c2nonc2c1Nc1ccccc1O,"inconclusive: 8.91 µM [inhibitor, partial curve]",
CC(C)(CNc1ccc([N+](=O)[O-])cc1Cl)N1CCOCC1,"inconclusive: 44.7 µM [inhibitor, partial curve, poor fit]",
CNc1c2c(nn1C)CCCC2,"inconclusive: 0.447 µM [inhibitor, full curve]",
CCN1CCN(C(=O)C2CCN(S(=O)(=O)N3CCC4(CC3)OCCO4)CC2)CC1,"inconclusive: 63.1 µM [inhibitor, partial curve, poor fit]",
COc1ccc(Oc2c(C(F)(F)F)oc3c(CN4CCCC(C)C4)c(O)ccc3c2=O)cc1 (stereo not given),,inactive: 17.9%
O=C(Nc1ccc(N2CCOCC2)cc1)Nc1ccc2nc(-c3ccco3)c(-c3ccco3)nc2c1,,inactive: -12.9%
CC(C)=CCc1c2c(c3occ(-c4ccc(O)cc4)c(=O)c3c1O)C=CC(C)(C)O2,,inactive: 3.01%
O=C(Nc1ccccc1Br)c1ccc(N2CCCC2=O)cc1,"inconclusive: 0.631 µM [inhibitor, full curve, poor fit]",
